{
  "source": "ChEMBL document CHEMBL4513141",
  "about": "“CO-ADD screening of NIH (USA) - Clinical Collection” (2021)",
  "note": "The other results are listed elsewhere or left out. Entries with a potency or affinity are not part of this list.",
  "data": [
    {"test_system": "Pseudomonas aeruginosa", "settings": "Concentration 20 uM; ASSAY_TEST Inhibition of Bacterial Growth; detection method Absorption (OD600); MEDIA CAMHB; plate type 384well; NBS; CORNING #3640; time 18 hr", "units": {"Inhibition": "%"}, "values": [
      {"smiles": "CCc1nn(CCCN2CCN(c3cccc(Cl)c3)CC2)c(=O)n1CCOc1ccccc1.Cl", "note": "[NEFAZODONE HYDROCHLORIDE]", "Inhibition": 7.83},
      {"smiles": "CN(C)c1nc(N(C)C)nc(N(C)C)n1", "note": "[ALTRETAMINE]", "Inhibition": 10.65},
      {"smiles": "COCC1=C(C(=O)OC(C)OC(=O)OC(C)C)N2C(=O)[C@@H](NC(=O)/C(=N\\OC)c3csc(N)n3)[C@H]2SC1", "note": "(stereo not given in full) [CEFPODOXIME PROXETIL]", "Inhibition": 10},
      {"smiles": "O=[N+]([O-])c1cccc2cn[nH]c12", "note": "[7-NITROINDAZOLE]", "Inhibition": 14.08},
      {"smiles": "CCCNCC(O)COc1ccccc1C(=O)CCc1ccccc1", "note": "(stereo not given) [PROPAFENONE]", "Inhibition": 13.87},
      {"smiles": "CN[C@@H]1[C@H](O)[C@H](NC)[C@H]2O[C@@]3(O)C(=O)C[C@@H](C)O[C@H]3O[C@@H]2[C@H]1O.Cl.Cl.Cl.O.O.O", "Inhibition": 14.15},
      {"smiles": "CCCCN1CCCC1CNC(=O)c1cc(C#N)c2ccccc2c1OC", "note": "(stereo not given) [NAFADOTRIDE]", "Inhibition": 9.49},
      {"smiles": "CC(=O)O[C@]1(C(C)=O)CC[C@H]2[C@@H]3C=C(C)C4=CC(=O)CC[C@]4(C)[C@H]3CC[C@@]21C", "note": "[MEGESTROL ACETATE]", "Inhibition": 9.23},
      {"smiles": "COc1ccc(C2CNC(=O)C2)cc1OC1CCCC1", "note": "(stereo not given) [ROLIPRAM]", "Inhibition": 10.91},
      {"smiles": "OC[C@H]1O[C@@H](Oc2cc(O)cc(/C=C/c3ccc(O)cc3)c2)[C@H](O)[C@@H](O)[C@@H]1O", "note": "[PICEID]", "Inhibition": 7.23},
      {"smiles": "CC1(C)C[C@@H]1C(=O)N/C(=C\\CCCCSC[C@H](N)C(=O)O)C(=O)[O-].[Na+]", "note": "[CILASTATIN SODIUM]", "Inhibition": 8.63},
      {"smiles": "Cc1ccc(Cl)c(Nc2ccccc2C(=O)[O-])c1Cl.O.[Na+]", "note": "[MECLOFENAMATE SODIUM]", "Inhibition": 15.76},
      {"smiles": "CC(C)NCC(O)COc1ccc(COCCOC(C)C)cc1.CC(C)NCC(O)COc1ccc(COCCOC(C)C)cc1.O=C(O)/C=C/C(=O)O", "note": "(stereo not given) [BISOPROLOL FUMARATE]", "Inhibition": 35.11},
      {"smiles": "CC(=O)OCC(CCn1cnc2cnc(N)nc21)COC(C)=O", "note": "[FAMCICLOVIR]", "Inhibition": 12.09},
      {"smiles": "Cc1nc(=O)c2cc(CN(C)c3ccc(C(=O)N[C@@H](CCC(=O)O)C(=O)O)s3)ccc2[nH]1", "note": "[RALTITREXED]", "Inhibition": 12.62},
      {"smiles": "CCOC(=O)[C@H](CCc1ccccc1)N[C@H]1CCc2ccccc2N(CC(=O)O)C1=O.Cl", "note": "[BENAZEPRIL HYDROCHLORIDE]", "Inhibition": 9.74},
      {"smiles": "CC[C@]1(O)C[C@@H]2CN(CCc3c([nH]c4ccccc34)[C@@](C(=O)OC)(c3cc4c(cc3OC)N(C=O)[C@H]3[C@@](O)(C(=O)OC)[C@H](OC(C)=O)[C@]5(CC)C=CCN6CC[C@]43[C@@H]65)C2)C1.O=S(=O)(O)O", "Inhibition": 17.99},
      {"smiles": "CC(C)(C)NC(=O)[C@H]1CC[C@H]2[C@@H]3CC[C@H]4NC(=O)C=C[C@]4(C)[C@H]3CC[C@]12C", "note": "[FINASTERIDE]", "Inhibition": 15.1},
      {"smiles": "CC12CCC(=O)C=C1CCC1C2CCC2(C)C1CCC2(O)C(=O)CO", "note": "(stereo not given)", "Inhibition": 7.63},
      {"smiles": "Cc1cccc(C)c1NC(=O)C1CCCCN1C.Cl", "note": "(stereo not given) [MEPIVACAINE HYDROCHLORIDE]", "Inhibition": 12.98},
      {"smiles": "O=c1[nH]c(=O)n(C2CCCO2)cc1F", "note": "(stereo not given) [TEGAFUR]", "Inhibition": 21.04},
      {"smiles": "CC1=Nc2ccc(Cl)cc2S(=O)(=O)N1", "note": "[DIAZOXIDE]", "Inhibition": 17.15},
      {"smiles": "O=C(NCCO[N+](=O)[O-])c1cccnc1", "note": "[NICORANDIL]", "Inhibition": 11.46},
      {"smiles": "C[n+]1ccccc1/C=N/O.[Cl-]", "note": "[PRALIDOXIME CHLORIDE]", "Inhibition": 10.72},
      {"smiles": "CNCC[C@H](Oc1cccc2ccccc12)c1cccs1.Cl", "note": "[DULOXETINE HYDROCHLORIDE]", "Inhibition": 13.26},
      {"smiles": "CNC(=C[N+](=O)[O-])NCCSCc1ccc(CN(C)C)o1.Cl", "note": "[RANITIDINE HYDROCHLORIDE]", "Inhibition": 10.54},
      {"smiles": "Cc1cnc(NC(=O)C2=C(O)c3ccccc3S(=O)(=O)N2C)s1", "note": "[MELOXICAM]", "Inhibition": 4.04},
      {"smiles": "Cl.O=C1CN2Cc3c(ccc(Cl)c3Cl)N=C2N1", "note": "[ANAGRELIDE HYDROCHLORIDE]", "Inhibition": 17.86},
      {"smiles": "CN(Cc1cnc2nc(N)nc(N)c2n1)c1ccc(C(=O)N[C@@H](CCC(=O)O)C(=O)O)cc1.O", "Inhibition": 10.16},
      {"smiles": "C[C@]12C=CC(=O)C=C1CC[C@@H]1[C@@H]2C(=O)C[C@@]2(C)[C@H]1CC[C@]2(O)C(=O)CO", "note": "[PREDNISONE]", "Inhibition": 17.68},
      {"smiles": "CC1Cc2ccccc2N1NC(=O)c1ccc(Cl)c(S(N)(=O)=O)c1", "note": "(stereo not given) [INDAPAMIDE]", "Inhibition": 6.26},
      {"smiles": "CCc1c(C)[nH]c2c1C(=O)C(CN1CCOCC1)CC2.Cl", "note": "(stereo not given) [MOLINDONE HYDROCHLORIDE]", "Inhibition": 9.46},
      {"smiles": "CN1CCC(=C2c3ccccc3CC(=O)c3sccc32)CC1.O=C(O)/C=C/C(=O)O", "note": "[KETOTIFEN FUMARATE]", "Inhibition": 11.46},
      {"smiles": "CC1CCN(CCCC(=O)c2ccc(F)cc2)CC1.Cl", "Inhibition": 18.9},
      {"smiles": "NC(=O)N1c2ccccc2C=Cc2ccccc21", "note": "[CARBAMAZEPINE]", "Inhibition": 9.78},
      {"smiles": "Nc1nc(=O)c2nc(CNc3ccc(C(=O)N[C@@H](CCC(=O)O)C(=O)O)cc3)cnc2[nH]1", "note": "[FOLIC ACID]", "Inhibition": 13.94},
      {"smiles": "CCCCc1nc(Cl)c(CO)n1Cc1ccc(-c2ccccc2-c2nnn[n-]2)cc1.[K+]", "note": "[LOSARTAN POTASSIUM]", "Inhibition": 5.11},
      {"smiles": "CNCCCCOc1ccccc1Cc1ccccc1.Cl", "Inhibition": 15.72},
      {"smiles": "CC(N/C(=N\\C#N)Nc1ccncc1)C(C)(C)C.O", "note": "(stereo not given)", "Inhibition": 0.62},
      {"smiles": "CC(=CCC1=C(C)C(=O)c2ccccc2C1=O)CCCC(C)CCCC(C)CCCC(C)C", "note": "(stereo not given)", "Inhibition": 12.7},
      {"smiles": "CCN1CC(CCN2CCOCC2)C(c2ccccc2)(c2ccccc2)C1=O.Cl", "note": "(stereo not given)", "Inhibition": 16},
      {"smiles": "CCCN[C@H]1CCc2nc(N)sc2C1", "note": "[PRAMIPEXOLE]", "Inhibition": 15.84},
      {"smiles": "Cc1cccc(CN2CCN(C(c3ccccc3)c3ccc(Cl)cc3)CC2)c1.Cl.Cl", "note": "(stereo not given)", "Inhibition": 8.84},
      {"smiles": "OCCN1CCN(CCCN2c3ccccc3Sc3ccc(Cl)cc32)CC1", "note": "[PERPHENAZINE]", "Inhibition": 23.05},
      {"smiles": "Nc1ccc(S(=O)(=O)c2ccc(N)cc2)cc1", "note": "[DAPSONE]", "Inhibition": 8.27},
      {"smiles": "CN(C)CCOC(c1ccc(Cl)cc1)c1ccccn1.O=C(O)/C=C\\C(=O)O", "note": "(stereo not given) [CARBINOXAMINE MALEATE]", "Inhibition": 8.84},
      {"smiles": "CC(=O)[C@H]1CC[C@H]2[C@@H]3C[C@H](C)C4=CC(=O)CC[C@]4(C)[C@H]3[C@@H](O)C[C@]12C", "note": "[MEDRYSONE]", "Inhibition": 10.79},
      {"smiles": "Cl.c1ccc2c(c1)CCCC2C1=NCCN1", "note": "(stereo not given) [TETRAHYDROZOLINE HYDROCHLORIDE]", "Inhibition": 22.85},
      {"smiles": "CCCC(=O)Nc1ccc(OCC(O)CNC(C)C)c(C(C)=O)c1.Cl", "note": "(stereo not given) [ACEBUTOLOL HYDROCHLORIDE]", "Inhibition": 12.62},
      {"smiles": "CN1CCN(c2nc3cc(C(F)(F)F)ccc3n3cccc23)CC1.O=C(O)/C=C\\C(=O)O.O=C(O)/C=C\\C(=O)O", "Inhibition": 7.34},
      {"smiles": "C#C[C@]1(O)CC[C@H]2[C@@H]3CCc4cc(O)ccc4[C@H]3CC[C@@]21C", "note": "[ETHINYL ESTRADIOL]", "Inhibition": 11.31},
      {"smiles": "CN1CCCCC1CCN1c2ccccc2Sc2ccc([S+](C)[O-])cc21.O=S(=O)(O)c1ccccc1", "note": "(stereo not given) [MESORIDAZINE BESYLATE]", "Inhibition": 5.37},
      {"smiles": "Cc1ncc([N+](=O)[O-])n1CCO", "note": "[METRONIDAZOLE]", "Inhibition": 12.01},
      {"smiles": "CCN(Cc1ccncc1)C(=O)C(CO)c1ccccc1", "note": "(stereo not given) [TROPICAMIDE]", "Inhibition": 18.41},
      {"smiles": "O=C(CCCN1CC=C(n2c(=O)[nH]c3ccccc32)CC1)c1ccc(F)cc1", "note": "[DROPERIDOL]", "Inhibition": 9.76},
      {"smiles": "CC(=O)S[C@@H]1CC2=CC(=O)CC[C@]2(C)[C@H]2CC[C@@]3(C)[C@@H](CC[C@@]34CCC(=O)O4)[C@H]12", "note": "[SPIRONOLACTONE]", "Inhibition": 8.19},
      {"smiles": "COc1ccc(-c2oc3c(CC=C(C)C)c(O[C@@H]4O[C@H](CO)[C@@H](O)[C@H](O)[C@H]4O)cc(O)c3c(=O)c2O[C@@H]2O[C@@H](C)[C@H](O)[C@@H](O)[C@H]2O)cc1", "note": "[ICARIIN]", "Inhibition": 18.03},
      {"smiles": "COc1ccc2cc(CCC(C)=O)ccc2c1", "note": "[NABUMETONE]", "Inhibition": 12.84},
      {"smiles": "CNC(=C[N+](=O)[O-])NCCSCc1csc(CN(C)C)n1", "note": "[NIZATIDINE]", "Inhibition": 8.31},
      {"smiles": "COc1cc(C)nc(-n2nc(C)cc2OC)n1", "note": "[EPIRIZOLE]", "Inhibition": 12.79},
      {"smiles": "Cl.O=C1c2c(O)ccc(O)c2C(=O)c2c(NCCNCCO)ccc(NCCNCCO)c21", "Inhibition": 1.28},
      {"smiles": "CNCCC=C1c2ccccc2CCc2ccccc21.Cl", "note": "[NORTRIPTYLINE HYDROCHLORIDE]", "Inhibition": 14.17},
      {"smiles": "CCc1cc(C(N)=S)ccn1", "note": "[ETHIONAMIDE]", "Inhibition": 20.55},
      {"smiles": "O=C1c2c(O)cc(O)cc2O[C@H](c2ccc(O)c(O)c2)[C@H]1O", "note": "[(+)-TAXIFOLIN]", "Inhibition": 12.91},
      {"smiles": "COC(=O)C1=C(C)NC(C)=C(C(=O)O[C@@H]2CCCN(Cc3ccccc3)C2)[C@@H]1c1cccc([N+](=O)[O-])c1.Cl", "Inhibition": 29.02},
      {"smiles": "COc1cc2nc(N3CCN(C(=O)C4CCCO4)CC3)nc(N)c2cc1OC", "note": "(stereo not given) [TERAZOSIN]", "Inhibition": 7.31},
      {"smiles": "CC(C)OC(=O)CCC/C=C\\C[C@@H]1[C@@H](CC[C@@H](O)CCc2ccccc2)[C@H](O)C[C@@H]1O", "note": "[LATANOPROST]", "Inhibition": 38.15},
      {"smiles": "COc1cc(C)c(/C=C/C(C)=C/C=C/C(C)=C/C(=O)O)c(C)c1C", "note": "[ACITRETIN]", "Inhibition": 5.45},
      {"smiles": "NS(=O)(=O)c1cc2c(cc1Cl)NCNS2(=O)=O", "note": "[HYDROCHLOROTHIAZIDE]", "Inhibition": 21.02},
      {"smiles": "CCCc1nc(C)c2c(O)nc(-c3cc(S(=O)(=O)N4CCN(CC)CC4)ccc3OCC)nn12.O=C(O)CC(O)(CC(=O)O)C(=O)O", "Inhibition": 9.68}
    ]}
  ]
}
